Measured values: US20100055192A1, “MICRONIZED PARTICLES OF LOW-DOSAGE STRENGTH ACTIVE AGENTS FOR POWDER FORMULATIONS FOR INHALATION” (Chiesi Farmaceutici S.p.A., priority 2007, published 2010)
Where a name gives a salt, the structure may show the parent alone.

Experiments:
[1] = Particle size distribution by laser diffraction (Malvern apparatus); format: physicochemical; conditions: fumarate dihydrate; for Particle size d (v, 0.1): volume diameter of 10% of the particles; for Particle size d (v, 0.5): volume diameter of 50% of the particles; for Particle size d (v, 0.9): volume diameter of 90% of the particles
Procedure: (§1) The particle size was determined by laser diffraction using a Malvern apparatus. The parameters taken into consideration were the VD in microns of 5%, 10%, 50%, and 90% of the particles expressed as d(v,0.05), d(v,0.1), d(v, 0.5), and d(v, 0.9), respectively, which correspond to the mass diameter assuming a size independent density for the particles. The Specific Surface Area (SSA) was determined by BET nitrogen adsorption using a Coulter SA3100 apparatus as a mean of three determinations.
(§2) Different batches of formoterol fumarate dihydrate were milled in a jet mill apparatus at different operating conditions in order to obtain different particle size distribution. The micronized batches were characterised in terms of particle size distribution and Specific Surface Area as reported in Example 1.

[2] = Specific Surface Area by BET nitrogen adsorption (Coulter SA3100); format: physicochemical; conditions: mean of three determinations, fumarate dihydrate
Procedure: as §1, §2

Row | SMILES | Particle size d (v, 0.1) [1] [μm] | Particle size d (v, 0.5) [1] [μm] | Particle size d (v, 0.9) [1] [μm] | SSA (Specific Surface Area) [2] [m^2/g]
1 | COc1ccc(CC(C)NCC(O)c2ccc(O)c(NC=O)c2)cc1 (stereo not shown) [formoterol fumarate dihydrate batch 5, formoterol fumarate dihydrate] | 0.60 | 2.27 | 5.14 | 7.90
2 | COc1ccc(CC(C)NCC(O)c2ccc(O)c(NC=O)c2)cc1 (stereo not shown) [formoterol fumarate dihydrate batch 4, formoterol fumarate dihydrate] | 0.61 | 2.09 | 5.28 | –
3 | COc1ccc(CC(C)NCC(O)c2ccc(O)c(NC=O)c2)cc1 (stereo not shown) [formoterol fumarate dihydrate batch 2, formoterol fumarate dihydrate] | 1.68 | 2.93 | 5.08 | 5.82
4 | COc1ccc(CC(C)NCC(O)c2ccc(O)c(NC=O)c2)cc1 (stereo not shown) [formoterol fumarate dihydrate batch 1, formoterol fumarate dihydrate] | 1.41 | 2.58 | 4.60 | 5.73
5 | COc1ccc(CC(C)NCC(O)c2ccc(O)c(NC=O)c2)cc1 (stereo not shown) [formoterol fumarate dihydrate batch 3, formoterol fumarate dihydrate] | 1.66 | 2.90 | 5.02 | 5.54
